# Data as given in PubChem BioAssay AID651784 (National Center for Advancing Translational Sciences (NCATS), 2012).
# The shares of active, inactive and inconclusive entries below differ from those in the screen. Potencies beside an inconclusive call are fits to weak or partial responses and may not hold up. The source made the active and inactive calls. Calls come from the whole dose curve; as a rule, active = well fitted inhibition curve with a large enough effect; inconclusive = small, poorly fitted or top-dose-only effect; inactive = no such curve, though single readings can be large or run the other way.
# Experiment: Acumen qHTS Assay for Inhibitors of the mTORC1 Signaling Pathway in MEF (Tsc2-/-, p53-/-) Cells: Hit Validation;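 note: phospho-rpS6 Ser235/236 immunofluorescence normalized to propidium iodide cell count; nearly all actives have a fitted effect of over 65% in size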
# Conditions: Acumen imaging
# Potency is the fitted concentration of half-maximal effect.
row,Compound,Potency
1,CC1CCN(S(=O)(=O)c2ccc3nc(Nc4cccc(C(F)(F)F)c4)ccc3c2)CC1,"inconclusive: 16.5 µM [inhibitor, single point]"
2,Fc1ccc(Nc2nc3nonc3nc2Nc2cccc(C(F)(F)F)c2)cc1,active: 1.85 µM
3,Cc1cc(OCC(=O)NCC2(N3CCN(C)CC3)CCCCC2)cc(C)c1Cl,"inconclusive: 18.5 µM [inhibitor, single point]"
4,CCOC(=O)c1c(NC(=O)COc2ccc(OC)cc2)sc(C(=O)N(CC)CC)c1C,"inconclusive: 16.5 µM [inhibitor, single point]"
5,CCOc1ccccc1NC(=O)c1c(NCc2sccc2C)sc2c1CCC(C)C2 (stereo unspecified),"inconclusive: 23.3 µM [inhibitor, single point]"
6,CCc1ccc2ncc(S(=O)(=O)c3ccc(Cl)cc3)c(N3CCN(CC)CC3)c2c1,"inconclusive: 26.1 µM [inhibitor, single point]"
7,O=C(NCCc1nc2ccccc2n1Cc1ccc(Cl)cc1Cl)c1ccco1,"inconclusive: 8.26 µM [inhibitor, partial curve]"
8,CCOc1cc(CNCCSc2nnnn2C)cc(Cl)c1OCc1ccc(Cl)cc1,"inconclusive: 14.7 µM [inhibitor, single point]"
9,CCN(CC)CCn1c(=N)n(CC(O)COc2ccccc2C)c2ccccc21 (stereo unspecified),active: 4.65 µM
10,O=S(=O)(c1ccccc1)n1nc(-c2ccc(Cl)cc2)nc1NCc1ccccc1,"inconclusive: 3.29 µM [inhibitor, full curve]"
11,COc1ccccc1-c1cc(C(F)(F)F)nc(S(=O)(=O)CCCC(=O)Nc2ccccc2F)n1,"inconclusive: 13.1 µM [inhibitor, single point]"
12,Cc1ccc(CS(=O)(=O)c2ncc(Cl)c(C(=O)Nc3nnc(C(C)C)s3)n2)cc1,active: 5.85 µM
13,CCOc1ccc(S(=O)(=O)N(C(=O)c2ccncc2)c2ccc3oc(C)c(C(=O)OC)c3c2)cc1,active: 3.69 µM
14,Cc1cc(C)c2oc(-c3cccc(NC(=O)COc4ccc([N+](=O)[O-])cc4)c3)nc2c1,"inconclusive: 26.1 µM [inhibitor, single point]"
15,Cc1cc(OCC(=O)Nc2cc(-c3nc4ccccc4[nH]3)ccc2C)ccc1Cl,"inconclusive: 14.7 µM [inhibitor, single point]"
16,COC(=O)c1ccccc1NC(=O)Cn1c(=O)n(-c2ccc(C)cc2)c(=O)c2ccccc21,active: 5.85 µM
17,CN(C)c1ccc(C(=O)Nc2sc(Nc3ccccc3)nc2C(N)=O)cc1,"inconclusive: 2.61 µM [inhibitor, full curve]"
18,CCCCCOc1ccc(NC(=O)Cn2c(-c3cncs3)nc3ccccc32)cc1,"inconclusive: 20.7 µM [inhibitor, single point]"

row,Compound,Potency
1,CCN(CC)CC(C)CNC(=O)c1cc(-c2ccc(Br)s2)nc2ccccc12 (stereo unspecified),"inconclusive: 2.33 µM [inhibitor, partial curve, poor fit]"
2,CCN(CC)c1ccc(NC(=O)CN(C)S(=O)(=O)c2cccc3nsnc23)c(C)c1,"inconclusive: 16.5 µM [inhibitor, single point]"
3,Cc1c(Cl)ccc2sc(NC(=O)c3ccc(S(=O)(=O)N4CCCc5ccccc54)cc3)nc12,"inconclusive: 18.5 µM [inhibitor, single point]"
4,Oc1ccc(NCc2ccccc2OCc2ccccc2F)cc1,"inconclusive: 18.5 µM [inhibitor, single point]"
5,COc1ccc(N(Cc2ccccc2)C(=O)c2nc(S(C)(=O)=O)ncc2Cl)cc1,active: 1.85 µM
6,COc1ccccc1CCNC(=O)C1CCN(c2nnc(-n3cccc3CNc3ccc(C)cc3)s2)CC1,"inconclusive: 1.85 µM [inhibitor, partial curve, poor fit]"
7,CC1=C(C(=O)Nc2ccc(C)cc2C)C(c2ccc(C(C)C)cc2)n2nc(C(F)(F)F)nc2N1 (stereo unspecified),"inconclusive: 23.3 µM [inhibitor, single point]"
8,Cc1cccc(N2CCN(C(=O)c3cnn(-c4cccc(Cl)c4C)c3C3CCNCC3)CC2)c1C,"inconclusive: 18.5 µM [inhibitor, partial curve, poor fit]"
9,Cc1cc(C)cc(Oc2coc3cc(OCC(=O)NC4CCCCC4)ccc3c2=O)c1,"inconclusive: 23.3 µM [inhibitor, single point]"
10,CCCN1C(=O)C(O)(CC(=O)c2ccc(CC)cc2)c2cc(Br)ccc21 (stereo unspecified),"inconclusive: 2.61 µM [inhibitor, full curve]"
11,Cc1ccc(C)c(N2CCN(CCCNC(=O)C3COc4ccccc4C3)CC2)c1 (stereo unspecified),"inconclusive: 23.3 µM [inhibitor, single point]"
12,COC(=O)c1ccccc1NC(=O)c1nc(S(=O)(=O)Cc2cccc(C)c2)ncc1Cl,active: 4.14 µM
13,COc1ccc(C)cc1NC(=O)C(Cc1ccccc1)NS(=O)(=O)c1ccc(Br)s1 (stereo unspecified),"inconclusive: 23.3 µM [inhibitor, single point]"
14,CCOC(=O)c1c(C)[nH]c(CCC(=O)Nc2cc(C)ccc2OC)c1C,"inconclusive: 20.7 µM [inhibitor, single point]"
15,Nc1c(C(=O)NCc2ccccc2)nnn1Cc1cccc(Br)c1,"inconclusive: 0.0261 µM [inhibitor, full curve, poor fit]"
16,CCOc1ccc(S(=O)(=O)NCCc2sc(-c3ccc(C)cc3)nc2C)cc1,"inconclusive: 26.1 µM [inhibitor, single point]"
17,O=C(C1CCN(c2nc3ccccc3[nH]2)CC1)N1CCN(c2cccc(Cl)c2)CC1,"inconclusive: 23.3 µM [inhibitor, single point]"
18,O=Nc1c(-c2c(O)[nH]c3cc(Br)ccc23)[nH]c2ccccc12,"inconclusive: 10.3 µM [inhibitor, full curve, poor fit]"

# 2 compounds picked at random from the list so far:
row,Compound,Potency
1,CCN(CC)CC(C)CNC(=O)c1cc(-c2ccc(Br)s2)nc2ccccc12 (stereo unspecified),"inconclusive: 2.33 µM [inhibitor, partial curve, poor fit]"
6,CCc1ccc2ncc(S(=O)(=O)c3ccc(Cl)cc3)c(N3CCN(CC)CC3)c2c1,"inconclusive: 26.1 µM [inhibitor, single point]"
